# Source: publication PMC10163288
# Some of the results follow.
# B1: il10ra_site1_sap_18_mot_HHH_b1_02464_000000069_0001_1_19_H_._HHH_b2_01682_0002_0000500034_0000001_0_0001_af2pred_0001 (protein)
# chain: SSSSDEEEIEERVEELLEEAKRIEDPEERAYVLTRAYALASRLRDPELEELVREVAIRLSSSSSS
# B2: il10ra_site1_sap_26_mot_HHH_b1_04693_000000238_0001_19_36_H_._HHH_b2_03114_0001_0000100008_0000001_0_0001 (protein)
# chain: SSSSSSEIEREVEELLEEARHIPDPDEWFRLIEEAIRLATEAQDPELIKLVMEFLREKIRSSSSS
# B3: il10ra_site1_sap_23_mot_HHH_b2_07144_000000289_0001_1_18_H_._HHH_b2_00770_af2_0001_0000100004_0000001_0_0001_af2pred_0001 (protein)
# chain: SSSSDVEERVEELEEQVRELLENGNPHEALQVIREIARLAAENNDDEAMRIAVELLKLVFSSSSS
# B4: il10ra_site1_sap_22_mot_HHH_b2_00076_000000055_0001_40_55_H_._HHH_b1_06547_af2_0001_0000300016_0000001_0_0001_af2pred_0001 (protein)
# chain: SSSSDEEEEFMELFLRAFSIANRLNDEEVRRELHELAILFLEHGDPRVEERIKELLEELRSSSSS
# B5: il10ra_site1_normal_mot_8756ee2cf497b5429c717dfc0c0bcfd6_0001_000000186_0001_1_13_H_._HHH_b2_03728_af2_0001_0000500030_0000001_1_af2pred_0001 (protein)
# chain: SSSSSSSEVVKLIREIAELLREGNPEEAQELIEEAKKLAEELNNELARAILEFLERHANSSSSSS
# B6: il10ra_site1_normal_mot_67493b814c2a7b5c52b954d5d9494194_0001_af2_000000062_0001_34_48_H_._HHH_b2_07965_0001_0000300017_0000001_0_af2pred_0001 (protein)
# chain: SSSSDEKEKKARLALRLARAALEAGNPRAARINLRWAEKLARELGDEELLEQIEKLLEELNSSSS
# B7: il10ra_site1_normal_mot_HHH_b1_05879_000000258_0001_1_19_H_._HHH_b2_00580_0001_0000100016_0000002_0 (protein)
# chain: SSSSDTLEWSVRFLLEEVRRLLELGNEEQAEELLRKLLELLEEANDEELTREVQELLEELSSSSS
# B8: il10ra_site1_normal_mot_HHH_b2_04680_000000215_0001_1_16_H_._HHH_b2_01626_af2_0001_0000100002_0000001_1 (protein)
# chain: SSSSSSDEEIREAYRLVREAFEVDEEERERLLEEARELAERANDFSTIFAIRRALKSLESSSSSS
# B9: il10ra_site1_sap_14_mot_HHH_b2_07006_000000108_0001_1_19_H_._HHH_b2_02668_0001_0000100011_0000001_0_0001_af2pred_0001 (protein)
# chain: SSSSSRDEEFIRRALRFAKWVEEAGDPEAARFILEAALEIARRANDEEAQEELEELLKELSSSSS
# B10: il10ra_site1_normal_mot_HHH_b1_05937_af2_000000262_0001_20_37_H_._HHH_b1_08754_af2_0001_0000100002_0000001_0_af2pred_0001 (protein)
# chain: SSSSDDEEHRVLRLIAEAVRLLLNGNPEEAREVIEEAEELVRELGDERLREALEIVERALKSSSS
# B11: il10ra_site1_sap_25_mot_HHH_b2_05323_000000159_0001_1_18_H_._HHH_b1_08298_af2_0001_0000500034_0000001_0_0001 (protein)
# chain: SSSSDEELQEAFELLREAVEALLDGNPEEAEKLLEEARKLAEEAGNRLLRWQIEWLLEKVRSSSS
# B12: il10ra_site1_sap_17_mot_HHH_b1_01821_000000158_0001_23_39_H_._2fd006765095e2299ff75ffcaa73beff_0001_0001_0000100003_0000002_0_0001 (protein)
# chain: SSSSNEWYEEVKRLIEEAVKALRNGDEELLEELLKRLEELAEETNTPSVEFAVRLLERARGSSSS
# B13: il10ra_site1_sap_17_mot_HHH_b1_08477_000000091_0001_40_57_H_._HHH_b1_06378_0001_0000500043_0000001_0_0001 (protein)
# chain: SSSREEVQEIVEEAKKLAEEKNDEELERYVEIAKHFVEAALRQGDEELAHMVAEFLLRAVRDASS
# B14: il10ra_site1_normal_mot_HHH_b1_01011_000000096_0001_1_19_H_._HHH_b1_06988_0001_0000400011_0000001_0_af2pred_0001 (protein)
# chain: SSSSDRDEELLRLAIRFVKRLLEDGDPEAAKSTVKAALELAKRAGDEELLEELEKLLEELSSSSS
# B15: il10ra_site1_normal_mot_HHH_b2_00277_af2_000000172_0001_1_17_H_._HHH_b2_01938_0001_0000200015_0000001_0 (protein)
# chain: SSSSSDVEERVEELLEEAKEVDDEEEFRELLREAFLLAARLGDDRLAHEIIRLYAEFHQKSSSSS
# B16: il10ra_site1_sap_26_mot_HHH_b1_05056_000000217_0001_1_20_H_._HHH_b2_06767_0001_0000300019_0000002_0_0001 (protein)
# chain: SSSSDTQEVMELIKEAIQLLQNGNPEEAKKVLEEAKEIAEELNNWVALFAVEHLLRDIEERSSSS
# B17: il10ra_site1_normal_mot_HHH_b2_02757_000000230_0001_1_19_H_._HHH_b1_04215_af2_0001_0000300013_0000002_0 (protein)
# chain: SSSSDEELEKLERQLEELIEEGDRERFFRLVQELLRLAFRLSDPEVIQRVWELIKEFKELASSSS
# B18: il10ra_site1_sap_13_mot_HHH_b1_02881_000000027_0001_1_20_H_._HHH_b1_05977_0001_0000300025_0000001_0_0001 (protein)
# chain: SSSSSEEERYLRLTLRFIEWALEAGDEEAVRIALHVVERLAKEANDEEIEEEVERLQELLNSSSS
# B19: il10ra_site1_sap_16_mot_HHH_b1_07527_000000076_0001_1_15_H_._HHH_b1_02962_0001_0000100003_0000001_1_0001 (protein)
# chain: SSSSSSTEEEIERIVRELAEEFGLSEDAIRAVELAAKRNGASEREIEMMIRFQARAMSSSSSSSS
# B20: il10ra_site1_normal_mot_HHH_b1_03065_af2_000000286_0001_1_17_H_._HHH_b1_01527_af2_0001_0000200006_0000002_0 (protein)
# chain: SSSSTDEEYERIKELIKEANELQRRDPEEAEEVLREAKELAEELNNQALRFSIEHALRLVSSSSS
# B21: il10ra_site1_normal_mot_HHH_b1_02997_000000220_0001_39_52_H_._HHH_b1_05536_0001_0000100001_0000001_1_af2pred_0001 (protein)
# chain: SSSSDEEEAREALKLLEEAQKIEDPEEVRELLEEALELAEKANNEVLKRAIEERLRALKKSSSSS
# B22: il10ra_site1_normal_mot_HHH_b1_06994_000000193_0001_40_55_H_._HHH_b2_02682_0001_0000300045_0000001_0 (protein)
# chain: SSSSDLEELVRAAARLAEQALKAGDPRAARLLLRALEQALKRLGNPELLEEVEKLLEEIENSSSS
# B23: il10ra_site1_sap_23_mot_HHH_b1_06128_000000102_0001_1_20_H_._HHH_b1_07535_0001_0000600011_0000002_0_0001 (protein)
# chain: SSSSDEASRRIYELLREAAKLDHEGNPEEAQRVLEEALEIAEEGNNRVLAALIRWLIERIGSSSS
# B24: il10ra_site1_sap_22_mot_HHH_b1_02397_af2_000000085_0001_39_57_H_._HHH_b2_06644_0001_0000100002_0000001_0_0001 (protein)
# chain: SSSSDLEEYARRAAKFIRALLEAGNPEAAKSLLRALEDLAEKHNDPELREIVEELEELLGSSSSS
# B25: il10ra_site1_normal_mot_HHH_b2_02497_000000220_0001_1_20_H_._HHH_b2_06953_af2_0001_0000400026_0000001_0 (protein)
# chain: SSSSDEEEELRELIEEIEELQKEGDVDEFYKLARRVIEFAAEANNEELLRHLMEFLAHLFSSSSS
# B26: il10ra_site1_sap_20_mot_HHH_b1_03390_000000031_0001_39_52_H_._HHH_b2_07573_af2_0001_0000400009_0000001_0_0001 (protein)
# chain: SSSSDEEQEEILELLQEAFRLALRGNPEEARELVKRALELAEELGDERAAEMAEELLKSLSSSSS
# B27: il10ra_site1_normal_mot_HHH_b2_00033_000000036_0001_41_54_H_._HHH_b1_00510_af2_0001_0001000017_0000002_0 (protein)
# chain: SSSSSELEEELRELEEKAKELLERGDPEKAFQVLWRAAKVAAELNDKEALRELAELLREVFSSSS
# B28: il10ra_site1_normal_mot_HHH_b1_08477_000000091_0001_40_57_H_._HHH_b1_06384_af2_0001_0000200009_0000001_0 (protein)
# chain: SSSSDEEEKVKQALRFAKALAESGDEEAARLLLRQLASALEELNNPELLEEVEKLLEELGSSSSS
# B29: il10ra_site1_normal_mot_HHH_b2_03220_af2_000000223_0001_23_40_H_._HHH_b2_00272_0001_0000200016_0000001_0 (protein)
# chain: SSSSSTESEEVWELIREALELRAEGDPEEARRVLEEAEEIAEELNNFTFRFAIELLLRQLSSSSS
# B30: il10ra_site1_normal_mot_HHH_b1_05185_000000011_0001_22_39_H_._HHH_b1_03083_0001_0000100002_0000001_1_af2pred_0001 (protein)
# chain: SSSSDFEEAVELALKFIEHLIKRGSREAAKLLLRAAKDLAKRGNNEELEERVEELLEELRSSSSS
# B31: il10ra_site1_sap_25_mot_HHH_b2_02497_000000141_0001_1_20_H_._HHH_b2_04390_0001_0000100001_0000001_1_0001 (protein)
# chain: SSSSDRREIYELSRRVAELISDGNHEEAEKLLEEARRLVEELGDILLRFIVEFLEEDIEKTSSSS
# B32: il10ra_site1_normal_mot_HHH_b2_06954_000000276_0001_1_20_H_._6c810305ec7c73c4190ef0a942592ab6_0001_1_0001_0000300002_0000001_0 (protein)
# chain: DELEELARLVREDPNDEEAIQELALVLAHLFARDPDVVHLAFLLAEALREGDPEKLEEIAEEILK
# B33: il10ra_site1_normal_mot_HHH_b2_06979_000000158_0001_42_57_H_._HHH_b1_03926_0001_0000400045_0000001_0 (protein)
# chain: SSSSDVSQRIAELLRRAAELLNEGNPEEAEELVEEALELAQENNNELLAINAEYLLRDVRSSSSS
# B34: il10ra_site1_sap_21_mot_HHH_b2_04680_000000215_0001_1_16_H_._HHH_b2_03705_0001_0000100007_0000002_0_0001 (protein)
# chain: SSSSSEEREELYELSREAAELAARGDPEEAQKVLEEAHELAEEANNRLFLHVLRFLLRNISSSSS
# B35: il10ra_site1_normal_mot_HHH_b1_05056_000000217_0001_1_20_H_._HHH_b2_00498_0001_0000300036_0000001_1 (protein)
# chain: SSSSDEEREEVEELLEEAEQIEDPRERARVLQEATHIALEAGDPEALRLVWRVVKELFRRSSSSS
# B36: il10ra_site1_sap_15_mot_HHH_b2_02736_000000092_0001_22_38_H_._HHH_b2_05213_af2_0001_0000300020_0000002_0_0001 (protein)
# chain: SSSSDAELSERVWELLRRALHIDDPEERREVLEEAEELAREAGNRVLLIVIEFLIKDLEESSSSS
# B37: il10ra_site1_sap_21_mot_HHH_b2_07488_000000216_0001_1_17_H_._31920f510a6589983022af97b9178b34_0001_1_af2_0001_0000400004_0000001_0_0001_af2pred_0001 (protein)
# chain: SSSSDRLEEALKRTEEELKFAEEHGDERAARLLAKAAADLARQLGDEERLEKIEKILEELSSSSS
# Target: il10ra, Q13651
# Experiment: yeast display titration
row,Binder,apparent Kd
1,B1,inactive: no binding seen
2,B2,inactive: no binding seen
3,B3,inactive: no binding seen
4,B4,inactive: no binding seen
5,B5,inactive: no binding seen
6,B6,inactive: no binding seen
7,B7,inactive: no binding seen
8,B8,inactive: no binding seen
9,B9,inactive: no binding seen
10,B10,inactive: no binding seen
11,B11,inactive: no binding seen
12,B12,inactive: no binding seen
13,B13,inactive: no binding seen
14,B14,inactive: > 0.384 µM
15,B15,inactive: no binding seen
16,B16,inactive: no binding seen
17,B17,inactive: no binding seen
18,B18,inactive: no binding seen
19,B19,inactive: no binding seen

row,Binder,apparent Kd
1,B20,inactive: no binding seen
2,B21,inactive: no binding seen
3,B22,inactive: no binding seen
4,B23,inactive: no binding seen
5,B24,inactive: no binding seen
6,B25,inactive: no binding seen
7,B26,inactive: no binding seen
8,B27,inactive: no binding seen
9,B28,inactive: no binding seen
10,B29,inactive: no binding seen
11,B30,inactive: no binding seen
12,B31,inactive: no binding seen
13,B32,inactive: no binding seen
14,B33,inactive: no binding seen
15,B34,inactive: no binding seen
16,B35,inactive: no binding seen
17,B36,inactive: no binding seen
18,B37,inactive: no binding seen
